# According to PubChem BioAssay AID1259415 (National Center for Advancing Translational Sciences (NCATS), 2018):
# Among all 410,000 compounds or so, about 18,000 (4.4%) were called active. Inconclusive means that the source gave no clear call. Such entries were picked first, then a sample of the others. Cut-off read from the data, not from the text of the source: active = activity change below about -60%; inconclusive = no clear call, values can overlap the other calls; inactive = above about -39%.
# Test: qHTS Assay for inhibitors of the human cytomegalovirus (HCMV)
# Conditions: HFF cells, HCMV-luciferase reporter, 72 h; at 57.5 µM; hits give low values
# Method in brief: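 Steps: HFFs plated, 16 h 37C; compounds added; HCMV-luciferase added to MOI 1 PFU/cell; 72 h 37C; OneGlo reagent, 5 min room temperature; luminescence read, normalized to controls.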
# % is set by controls: 0 for no effect and ±100 for the full control effect.
row,Structure (SMILES),"activity change, negative = inhibition"
1,CC(=O)Nc1nc(-c2cccs2)cs1,inactive: 38.3%
2,CN(C)c1ccc(-[n+]2c(-c3ccccc3)cc(-c3ccccc3)cc2-c2ccccc2)cc1,active: -98.9%
3,CCCCN(CC)c1nc(N)c2c(N)nc(OCC)cc2c1C#N,inconclusive: -41%
4,Cc1cc(S(=O)(=O)Nc2c(C)nn(C)c2C)c(Cl)cc1Cl,inconclusive: -47.7%
5,O=C(Nc1ccc(N2CCOCC2)cc1)c1ccc([N+](=O)[O-])o1,active: -103%
6,COc1ccc(-c2nc(CSCC(=O)N3CCN(c4ccccc4F)CC3)c(C)o2)cc1,inconclusive: -59.8%
7,CCN(CC)C(=O)Oc1cc(COC)nc(-c2ccccc2)n1,inactive: 0.257%
8,O=C(CN1C(=O)NC(Cc2c[nH]c3ccccc23)C1=O)NCCc1ccccc1 (stereo unspecified),inconclusive: -42.5%
9,O=C(CCS(=O)(=O)c1ccc(Br)s1)Nc1cc(C(F)(F)F)cc(C(F)(F)F)c1,active: -89.7%
10,O=C(CSc1nc2ccsc2c(=O)n1Cc1ccc(C(=O)O)cc1)NCc1ccco1,inactive: -26.2%
11,CCC(OC(=O)C(CC(C)C)NC(=O)c1ccccc1)C(=O)Nc1nnc(C)s1 (stereo unspecified),inconclusive: -47.6%
12,CCOC(=O)c1ccc(-n2ccnc2)c(NC(=O)c2ccc(C(C)(C)C)cc2)c1,inactive: -19.2%
13,CC1CCN(C(=O)c2ccc3c(c2)C(=O)c2ccccc2-3)CC1,inconclusive: -44.4%
14,CSC1=NC(C)(C)CC2(C)Nc3ccccc3N12 (stereo unspecified),inconclusive: -59.3%
15,CN(C)S(=O)(=O)c1cccc(NC(=O)CSc2cccc3cccnc23)c1,active: -101%
16,CCCc1cc(=O)oc2cc(C)cc(OC(C)C(=O)NCCCN3CCOCC3)c12 (stereo unspecified),inactive: -6.28%
17,Cc1cc(C)nc(NC(=O)Cc2ccc([N+](=O)[O-])cc2)c1,inactive: -27.1%
18,CSc1nc(C)cc(OCC(=O)N/N=C/c2ccccc2O)n1,inconclusive: -48.3%
19,COc1ccc(N2CCN(C(=O)C3CCC(Cn4c(=S)[nH]c5ccccc5c4=O)CC3)CC2)cc1 (stereo unspecified),active: -80.9%
20,Oc1ccc(Cc2ccc(Cl)cc2)c(O)c1,active: -62.1%
21,CC(=O)c1ccc(NC(=O)c2ccn(C(=O)OCC(C)C)n2)cc1,inactive: 65%
22,COc1ccc(-c2cc(C(F)(F)F)nc(SCC(=O)N3CCCCC3)n2)cc1,inconclusive: -49.5%

row,Structure (SMILES),"activity change, negative = inhibition"
1,CCCCOc1ccc(NC(=O)c2cc3c(n(-c4ccc(Cl)cc4)c2=O)CCCC3=O)cc1,inactive: 14.9%
2,Cc1c(C)c2ccc(O[C@@H]3O[C@H](CO)[C@H](O)[C@H](O)[C@H]3O)c(C)c2oc1=O,inactive: 5.15%
3,C[C@H](CO)N1C[C@H](C)[C@H](CN(C)C(=O)Nc2ccc(-c3cccs3)cc2)OCc2cnnn2CCCC1=O,active: -60.7%
4,CCc1ccc(N(C(=O)CNC(=O)c2ccco2)C(C(=O)NCC2CCCO2)c2ccccc2)cc1 (stereo unspecified),inconclusive: -48.1%
5,CCC(C)(C(=O)NC1CCCC1)N(C)C(=O)c1ccccn1 (stereo unspecified),inconclusive: -48.6%
6,CNC(=O)Nc1cc(NC(=O)NC)cc(C(F)(F)F)c1,inactive: 65.8%
7,O=C1C(=O)N(Cc2ccncc2)C(c2ccccc2F)/C1=C(\O)c1ccc2c(c1)OCCO2 (stereo unspecified),inconclusive: -55.3%
8,CCc1nc2ccc(Cc3ccc4nc(CC)[nH]c4c3)cc2[nH]1,inconclusive: -58.7%
9,Cc1ccc(C)c(CN2CCC(n3nnc4cc(F)ccc43)CC2)c1,inactive: -30.6%
10,CCOC(=O)c1c(NC(=S)N2CCOCC2)sc2c1CCN(C(=O)OCC)C2,active: -109%
11,O=C1Nc2cc(C(=O)NCCN3CCCCCC3)ccc2S/C1=C\c1ccccc1,active: -100%
12,O=C(O)/C=C/c1ccc(S(=O)(=O)N2CCN(CCN3C(=O)C4C5C=CC(C5)C4C3=O)CC2)cc1 (stereo unspecified),inconclusive: -43.7%
13,CC1CCCN(C(=O)c2cn(-c3ccccc3)nc2-c2cccnc2)C1 (stereo unspecified),inconclusive: -40.8%
14,CCOC(=O)N1CCN(C2=C(NS(=O)(=O)c3ccc(C)cc3)C(=O)c3ccccc3C2=O)CC1,inconclusive: -51.5%
15,Brc1ccc(-c2csc(NNC3=NCCCCC3)n2)cc1,inconclusive: -52.3%
16,Cc1ccc(CON=C2CCN(c3ncc(C(F)(F)F)cc3Cl)CC2)cc1,inconclusive: -42.6%
17,COc1cc(Cl)ccc1OC1(C)CCN(Cc2ccc(-c3ccccn3)cc2)C1 (stereo unspecified),inactive: -32.1%
18,O=C(CCSc1ccccc1)OCn1nnc2ccccc2c1=O,inconclusive: -40.3%
19,Cn1c(=O)n(Cc2ccccc2Br)c2ccccc21,active: -61.8%
20,Cc1ccc2nc(N(CCCN(C)C)C(=O)c3cc4ccccc4oc3=O)sc2c1,inconclusive: -52.6%
21,CCOc1ccc(C(=O)Nc2c(C)nc(Nc3ccccc3)nc2Nc2ccccc2)cc1OCC,inconclusive: -45.1%
22,CCN(CC)S(=O)(=O)c1ccc(N/N=C(\C)c2cccnc2)nc1,inconclusive: -58.5%

# 4 neighbouring records already listed:
row,Structure (SMILES),"activity change, negative = inhibition"
17,COc1cc(Cl)ccc1OC1(C)CCN(Cc2ccc(-c3ccccn3)cc2)C1 (stereo unspecified),inactive: -32.1%
18,O=C(CCSc1ccccc1)OCn1nnc2ccccc2c1=O,inconclusive: -40.3%
19,Cn1c(=O)n(Cc2ccccc2Br)c2ccccc21,active: -61.8%
20,Cc1ccc2nc(N(CCCN(C)C)C(=O)c3cc4ccccc4oc3=O)sc2c1,inconclusive: -52.6%

# The listing continues:

row,Structure (SMILES),"activity change, negative = inhibition"
1,Nc1nc2c(nnn2C2CC(O)C(CO)O2)c(=O)[nH]1 (stereo unspecified),inactive: -12.3%
2,O=C(Nc1cccc(C(F)(F)F)c1)N[C@H]1CC[C@@]23CCCN2C(=O)CCC[C@H]3C1Cc1ccccc1 (stereo partly specified),inconclusive: -50.6%
3,Cc1cc2c(n1-c1ccc(C(=O)NCc3cccc(Br)c3)cc1)CCC(C)C2 (stereo unspecified),inconclusive: -57.3%
4,COc1ccc(C(CNC(=O)c2ccc(Cl)s2)N2CCOCC2)cc1 (stereo unspecified),inactive: -23%
5,Cc1ccc(C)c2c1cc(C)c1nnc(SCC(=O)N3CCCc4ccccc43)n12,inconclusive: -52.2%
6,COc1ccc(NC(=O)CCn2nc(-c3ccc(Cl)cc3)c3ccccc3c2=O)cc1,inactive: -2.97%
7,C=CCn1c(C)cc(C(=O)COC(=O)/C=C/c2cccc(OC)c2)c1C,inconclusive: -42.4%
8,Oc1cccnc1Sc1cccc(C(F)(F)F)c1,inactive: 10.8%
9,COc1ccc(C(CNC(=O)c2cccc(S(=O)(=O)Nc3ccccc3OC)c2)N2CCCCC2)cc1 (stereo unspecified),active: -99.2%
10,CC1=C(C(=O)Nc2ccccc2C)C(c2sccc2C)n2ncnc2N1 (stereo unspecified),inactive: -10.5%
11,CCCCCc1nc2c(C#N)c(-c3ccc(Cl)cc3)ccn2n1,inactive: -21.3%
12,CC1=C/C(=C(/c2ccc(O)c(C)c2)c2ccccc2S(=O)(=O)O)C=CC1=O,inconclusive: -46.2%
13,CCOC(=O)N1CCN(C(=O)CN(C)S(=O)(=O)c2ccc(F)cc2)CC1,inactive: 0.918%
14,Cc1cc(C)c(Cn2cnc(-c3ccc([N+](=O)[O-])cc3)c2)c(C)c1,inconclusive: -43.3%
15,Cc1ccc(S(=O)(=O)CC(c2ccccc2)N2CCCCC2)cc1 (stereo unspecified),inconclusive: -55.6%
16,COCCCN1C(=O)C(=O)/C(=C(/O)c2ccc(S(=O)(=O)N3CCOCC3)cc2)C1c1ccc(C)cc1 (stereo unspecified),inconclusive: -42.5%
17,O=C(NCc1ccccc1)C(c1ccc(Cl)cc1)N(C(=O)c1csnn1)C1CC1 (stereo unspecified),active: -63%
18,Cc1ccc(C(c2ccc(C)o2)c2cccc([N+](=O)[O-])c2O)o1,inactive: 0.734%
19,CC1COc2ccccc2N1C(=O)c1ccc(Cl)nc1 (stereo unspecified),inconclusive: -41.8%
20,C=CCc1cc(Cl)ccc1OCCNCCN1CCOCC1,inconclusive: -44.9%
21,COCCCNC(=O)CCCn1c(=O)c2ccccc2n(CC(=O)Nc2c(C)cc(C)cc2C)c1=O,inconclusive: -55.6%
22,COCCn1cnc2c1c(=O)n(CC(=O)c1ccc3c(c1)OCCO3)c(=O)n2Cc1ccccc1,inactive: -26.4%

row,Structure (SMILES),"activity change, negative = inhibition"
1,Cc1ccc2oc(C(=O)NCC(c3ccc(Cl)cc3)N3CCOCC3)c(C)c2c1 (stereo unspecified),inactive: -3.12%
2,Cc1ccc(-n2cc(CN3CCC(CO)(Cc4ccccc4)CC3)cn2)cc1,inconclusive: -45.1%
3,COc1ccc2nc(-c3ccccc3)cc(C(=O)N3CCC3)c2c1,inconclusive: -44.6%
4,COc1cccc(CNC(=O)CCC2CCCN(C(=O)c3cc(C4CC4)[nH]n3)C2)c1 (stereo unspecified),inactive: 9.69%
5,O=C(O)CCCC(=O)N(Cc1ccccc1)Cc1ccccc1,inactive: 9.74%
6,Cc1ccccc1C(=O)Nc1ccccc1N1CCCCC1,inconclusive: -58.7%
7,CC(=O)Nc1ccc(C(=O)OCC(=O)NC2CCCCCCC2)cc1,inconclusive: -40.8%
8,COc1ccccc1C(=O)Nc1ccccc1C(=O)OCc1cc(=O)n2ccsc2n1,inactive: 12.8%
9,O=C(NS(=O)(=O)Oc1ccc(Cl)cc1)OC[C@@H]1CCCN2CCCC[C@H]12,inconclusive: -45.7%
10,CCOc1ccc(-n2c(-c3ccccc3)c[n+]3c2CCCCC3)cc1,active: -100%
11,Cc1ccsc1C=C1C(=O)c2ccccc2C1=O,inactive: 27%
12,O=C(Nc1nc2ccccc2[nH]1)C1CC(=O)N(c2ccc3c(c2)OCCO3)C1 (stereo unspecified),inactive: 4.71%
13,CC(OC(=O)c1cc2sccc2n1C)C(=O)NC(C)(C)C (stereo unspecified),inactive: -15.8%
14,COc1ccc(NS(=O)(=O)c2cccc3nsnc23)cc1Cl,inconclusive: -42.7%
15,CCOC(=O)c1csc(NC(=O)c2ccc(OCC)cc2)n1,active: -60.8%
16,Cc1ccc(-c2nc(CCNC(=O)C(=O)Nc3ccc(C)c(Cl)c3)cs2)cc1,inactive: -12%
17,Cc1ccc(C2=NN(CC(=O)NCc3ccco3)C(=O)CC2)cc1,inconclusive: -43.8%
18,CCOC(=O)C(NC(=O)c1ccccc1F)(Nc1cc(C)on1)C(F)(F)F (stereo unspecified),active: -94.1%
19,CCCC[n+]1ccn(C2=C([O-])c3ccccc3C(=O)/C2=N\S(=O)(=O)c2ccccc2)c1,inconclusive: -53.4%
20,CC(=O)CSc1nc(N(C)C)nc(N(C)C)n1,inconclusive: -40.2%
